This experiment concerns the target keratin 19 (KRT19), endogenous (human (endogenous in A549)) (UniProt P08727). The experiment can be described thus: co-IP; endogenous proteins in A549 lysate (IP Lysis Buffer), specific antibodies or control IgG overnight at 4 °C, protein A + G agarose, immunoblot. For orientation: A western blot detects proteins with antibodies after separation by electrophoresis.

By UniProt entry, the sequences of proteins in these tests, tags left out.
UniProt P08727: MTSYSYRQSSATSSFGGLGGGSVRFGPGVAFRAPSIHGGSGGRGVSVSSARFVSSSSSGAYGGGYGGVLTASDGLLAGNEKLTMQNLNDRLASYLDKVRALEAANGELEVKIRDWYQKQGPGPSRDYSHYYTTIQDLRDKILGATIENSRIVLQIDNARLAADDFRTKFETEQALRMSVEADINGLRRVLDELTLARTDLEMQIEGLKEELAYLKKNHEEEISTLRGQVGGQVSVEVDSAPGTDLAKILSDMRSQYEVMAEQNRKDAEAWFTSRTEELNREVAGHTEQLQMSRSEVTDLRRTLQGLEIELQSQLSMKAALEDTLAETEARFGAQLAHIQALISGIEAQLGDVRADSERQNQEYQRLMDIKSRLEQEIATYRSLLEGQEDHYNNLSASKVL
UniProt P35579: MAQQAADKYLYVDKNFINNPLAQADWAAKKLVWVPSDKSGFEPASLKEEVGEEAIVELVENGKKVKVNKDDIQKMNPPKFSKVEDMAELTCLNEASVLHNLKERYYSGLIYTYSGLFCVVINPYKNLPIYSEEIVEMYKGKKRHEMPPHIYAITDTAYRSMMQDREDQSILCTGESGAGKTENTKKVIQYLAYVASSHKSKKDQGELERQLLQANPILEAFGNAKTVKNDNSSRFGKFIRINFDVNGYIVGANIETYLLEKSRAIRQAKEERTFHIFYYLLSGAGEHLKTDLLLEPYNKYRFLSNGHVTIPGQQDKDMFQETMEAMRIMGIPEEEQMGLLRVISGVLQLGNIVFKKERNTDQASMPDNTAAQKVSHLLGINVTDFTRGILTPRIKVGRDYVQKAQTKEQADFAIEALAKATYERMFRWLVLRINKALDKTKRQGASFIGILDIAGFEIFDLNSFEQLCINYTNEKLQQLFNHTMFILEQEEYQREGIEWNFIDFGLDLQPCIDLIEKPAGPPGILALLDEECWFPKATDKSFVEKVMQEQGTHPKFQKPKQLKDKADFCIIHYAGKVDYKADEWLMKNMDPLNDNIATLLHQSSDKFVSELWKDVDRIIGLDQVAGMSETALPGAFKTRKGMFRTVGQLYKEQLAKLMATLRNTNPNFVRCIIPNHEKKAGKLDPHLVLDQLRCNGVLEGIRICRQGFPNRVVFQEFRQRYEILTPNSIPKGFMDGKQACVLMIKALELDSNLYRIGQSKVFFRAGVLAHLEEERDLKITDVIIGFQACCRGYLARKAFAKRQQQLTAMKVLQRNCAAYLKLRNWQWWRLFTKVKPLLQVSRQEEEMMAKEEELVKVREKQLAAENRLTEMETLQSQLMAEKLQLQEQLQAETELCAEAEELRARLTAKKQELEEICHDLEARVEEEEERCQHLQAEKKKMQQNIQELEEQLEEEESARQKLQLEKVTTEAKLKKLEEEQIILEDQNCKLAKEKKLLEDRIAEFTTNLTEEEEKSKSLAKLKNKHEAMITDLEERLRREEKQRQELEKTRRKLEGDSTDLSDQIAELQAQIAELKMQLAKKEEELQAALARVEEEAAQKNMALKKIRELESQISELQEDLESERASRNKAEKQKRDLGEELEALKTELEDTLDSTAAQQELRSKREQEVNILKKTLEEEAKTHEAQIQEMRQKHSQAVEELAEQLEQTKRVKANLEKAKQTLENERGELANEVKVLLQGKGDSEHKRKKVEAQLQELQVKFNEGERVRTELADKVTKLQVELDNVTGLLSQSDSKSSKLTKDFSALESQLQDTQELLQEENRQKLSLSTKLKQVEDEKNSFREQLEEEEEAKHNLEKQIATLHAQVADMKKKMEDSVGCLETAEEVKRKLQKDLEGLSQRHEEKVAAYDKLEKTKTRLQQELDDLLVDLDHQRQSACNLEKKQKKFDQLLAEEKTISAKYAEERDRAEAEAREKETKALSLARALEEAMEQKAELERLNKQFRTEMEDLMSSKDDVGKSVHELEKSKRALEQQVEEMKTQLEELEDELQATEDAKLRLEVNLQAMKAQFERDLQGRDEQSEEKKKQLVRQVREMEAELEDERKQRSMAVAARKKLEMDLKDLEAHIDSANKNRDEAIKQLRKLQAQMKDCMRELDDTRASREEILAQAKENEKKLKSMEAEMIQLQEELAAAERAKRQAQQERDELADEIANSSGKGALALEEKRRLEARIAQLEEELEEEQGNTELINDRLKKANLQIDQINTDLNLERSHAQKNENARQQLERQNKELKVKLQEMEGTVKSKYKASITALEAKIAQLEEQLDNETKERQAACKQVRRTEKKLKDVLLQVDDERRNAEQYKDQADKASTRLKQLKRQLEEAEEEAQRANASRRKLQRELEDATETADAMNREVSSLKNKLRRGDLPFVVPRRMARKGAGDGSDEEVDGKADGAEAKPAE

These are yes or no findings as the source states them, for the method shown. In cells and extracts the contact can be indirect. Some entries that bind do so weakly or less than the wild type.

Take “myosin heavy chain 9 (MYH9), endogenous (from UniProt P35579 1-1960)”: the binding result is listed as “binds”.

Values taken from paper PMC12802155.
